From patent US20130129626A1, “IN VIVO IMAGING AGENTS” (H[…] LIMITED, priority 2006, published 2013)
At least one read-out could not be matched to a standard name with certainty.

Test: Parallel Artificial Membrane Permeability Assay (PAMPA)
Format: in vitro ADME
Details: prediction from PAMPA Pe, in words
Protocol: The permeability of the CCR compounds was measured in a Parallel Artificial Membrane Permeability Assay (PAMPA) which gives a prediction of the blood brain barrier penetration by passive diffusion [Di et al, Eur. J. Med. Chem., 38(3), 223-232 (2003)].
The commonly accepted classification ranges for this PAMPA assay are as follows: • High predicted passive BBB permeation: Pe>4.0×10^−06 cm/sec. • Low predicted passive BBB permeation: Pe<2.0×10^−06 cm/sec.
Uncertain prediction of BBB permeation: 2.0×10^−06 cm/sec<Pe<4.0×10^−06 cm/sec.

Cc1ccc(N(CCCN2CCC(Cc3ccc(F)cc3)CC2)C(=O)C2CCN(C(=O)CF)CC2)cc1Cl [Compound 8]
predicted CNS (blood brain barrier) permeability: high
